Among the data in PMC7949165 are binding values, retold here.

Results are given in words; binding and its absence hold for the method and conditions named. Binding seen in cells or lysates may run through a third protein. Binding calls can cover weak binding; strength is not graded here.

The experiment concerns the target Low-density lipoprotein receptor-related protein-1 (LRP1) (mouse (endogenous in liver)). Briefly: co-IP; endogenous proteins of wild-type mouse liver lysate, precleared; antibodies against LRP1 or PIP5K1B cross-linked (BS3) to Protein-A Dynabeads, overnight at 4 °C, washed with PBS, eluted with 2X SDS buffer, western blot; nonspecific IgG as negative control.

B1: phosphatidylinositol-4-phosphate 5-kinase-like 1 (PIP5KL1) (protein, UniProt Q6U7H8 1-395)
chain: MATPSLRSHEIPAHSQEAGNKSISSGSRRGLLWHLRARQSRVGLFEVGPGHELHRMTRMMQEGLWAATQVSKNNPPTGPTTQKDYLEVMTQVHEEGFELGTLAGPAFARLRKSIGLTEEDYQATLGPGDPYLQFFSTSKSKASFFLTHDQRFFVKTQRRHEVHVLLAHLPRYVEHLQQYPHSLLARLLGVYSLRVAQGKKKYFIIMQCIFYPTSRISERYDIKGCNISRWVDPAPEGSPLVLVLKDLNFQEKTMRLGAQRSWFLRQMELDTAFLREVNVLDYSLLVAIQFLHEDEKGIHHSVFSTFKSIQGVSKSKGTGDQNCRMLPDLPNALHILDGPDQRYFLGLVDMTTVYGFRKRLEHVWKMVRYPGQSVSTVSPAHYARRLCRWAEVHTE
On to B1, for which the binding result is “binds”.
